Source: PubChem BioAssay (NCATS)
Inconclusive results, whose numbers are uncertain, are shown with a selection of clear calls. Where a call stands in place of a potency, no number is given. Potencies beside an inconclusive call are fits to weak or partial responses and may not hold up. The source made the active and inactive calls. Calls follow the shape of the dose curve; as a rule, active = well fitted cell-killing curve with a large enough effect; inconclusive = small, poorly fitted or top-dose-only effect, or effect the other way; inactive = no such curve, though single readings can be large or run the other way.

Test: Quantitative High-Throughput drug screen in 47 multiple myeloma cell lines against the NCATS MIPE library collection: KMS34_JCRB cell viability assay (AID 1918985); also: nearly all actives have a fitted effect of over 40% in size
Settings: KMS34 myeloma viability, CellTiter-Glo ATP luminescence, 48 h; series mostly up to 45.8 µM
In short: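 Plated at 500 cells per well, myeloma lines received MIPE 4.0 compounds by pin tool. Following 48 h culture at 37 °C, CellTiter-Glo luminescence gave viability relative to DMSO and media-only controls.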
Potency is read from the fitted curve at half-maximal effect.

| Structure (SMILES) | Potency |
| --- | --- |
| CN(C)c1cc(NC(=O)CNC(C)(C)C)c(O)c2c1C[C@@H]1C[C@H]3[C@H](N(C)C)C(=O)C(C(N)=O)=C(O)[C@@]3(O)C(=O)C1=C2O | inconclusive: 8.33 µM [cytotoxic, partial curve, poor fit] |
| O=C(c1ccccc1)c1ccc2n1CCC2C(=O)O (centres undefined) | inactive |
| COc1ccc2cc([C@H](C)C(=O)O)ccc2c1 | inactive |
| O=Nc1c(-c2c(O)[nH]c3cc(Br)ccc23)[nH]c2ccccc12 | active: 3.32 µM |
| O=NN(CCCl)C(=O)NCCCl | inconclusive: 0.0332 µM [cytotoxic, full curve, poor fit] |
| C=C(c1ccc(C(=O)O)cc1)c1cc2c(cc1C)C(C)(C)CCC2(C)C | inactive |
| COc1ccc2c3c1OC1C[C@@H](O)C=C[C@@]31CCN(C)C2 (some centres undefined) | inactive |
| Cc1ccc(C(=O)Nc2cccc(C(F)(F)F)c2)cc1Nc1nc(-c2cccnc2)nc2c1cnn2C | active: 16.6 µM |
| C=C1C(=CC=C2CCC[C@]3(C)[C@@H]([C@H](C)CCCC(C)(C)O)CC[C@@H]23)C[C@@H](O)C[C@@H]1O | inconclusive: 14.8 µM [cytotoxic, partial curve] |
| NC(CO)C(=O)NNCc1ccc(O)c(O)c1O (centres undefined) | active: 26.4 µM |
| CC1(C)CCC2=C(O1)c1ccccc1C(=O)C2=O | active: 13.2 µM |
| N[C@@H](Cc1c[nH]c2ccc(O)cc12)C(=O)O | inactive |
| Cc1cc2c(s1)Nc1ccccc1N=C2N1CCN(C)CC1 | inactive |
| CN1CCC(=C2c3ccccc3CCc3sccc32)CC1 | inactive |

Pulled by structure from the entries so far (two):

| Structure (SMILES) | Potency |
| --- | --- |
| CN1CCC(=C2c3ccccc3CCc3sccc32)CC1 | inactive |
| Cc1ccc(C(=O)Nc2cccc(C(F)(F)F)c2)cc1Nc1nc(-c2cccnc2)nc2c1cnn2C | active: 16.6 µM |
